Ki data for one molecule are collected here from ChEMBL document CHEMBL1156762, “Deciphering the mechanism of carbonic anhydrase inhibition with coumarins and thiocoumarins” (J Med Chem, 2010).

Protein sequences, listed by entry. Tags and fused reporters are not part of them. Lines headed by an entry give the natural chain unless they say otherwise; changes in a name come on top.
UniProt O43570: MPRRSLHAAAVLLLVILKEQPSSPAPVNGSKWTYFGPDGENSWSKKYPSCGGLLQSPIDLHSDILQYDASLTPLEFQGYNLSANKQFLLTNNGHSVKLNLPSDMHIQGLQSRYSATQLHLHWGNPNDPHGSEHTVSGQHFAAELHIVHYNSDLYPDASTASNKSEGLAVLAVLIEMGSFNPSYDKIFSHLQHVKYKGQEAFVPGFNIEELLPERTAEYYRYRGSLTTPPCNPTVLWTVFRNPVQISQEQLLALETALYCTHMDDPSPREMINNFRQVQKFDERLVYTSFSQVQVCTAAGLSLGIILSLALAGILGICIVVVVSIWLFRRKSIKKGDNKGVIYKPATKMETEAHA
UniProt P07451: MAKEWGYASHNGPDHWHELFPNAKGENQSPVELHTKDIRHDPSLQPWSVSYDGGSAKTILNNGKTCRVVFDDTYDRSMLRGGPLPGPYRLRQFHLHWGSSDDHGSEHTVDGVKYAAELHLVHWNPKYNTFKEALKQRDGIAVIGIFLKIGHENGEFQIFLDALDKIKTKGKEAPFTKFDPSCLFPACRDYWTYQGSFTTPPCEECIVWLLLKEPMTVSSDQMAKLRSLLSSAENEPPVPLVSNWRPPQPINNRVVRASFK

Assay [1] addresses Carbonic anhydrase 12 (Homo sapiens, UniProt O43570).
Assay [2] concerns the target Carbonic anhydrase 3 (Homo sapiens, UniProt P07451).

One may read the Ki as a dissociation constant, usually derived from enzyme kinetics or from competition with a known ligand. As for `O=c1ccc2ccc(OCc3ccccc3)cc2o1` [7-BENZYLOXYCOUMARIN], the Ki in assay [1] stood at 6.5 µM; in assay [2] it was 8.1 µM.
